The text below walks through data of patent US20040058857A1 (priority 2003, published 2004).

Series [1] in a line: solid-phase peptide synthesis. To be noted: acetate salt; for final HPLC purity: conjugation step.
Series [2] in a line: general procedure: Boc solid-phase peptide synthesis; Boc-Val-PAM; DCC and HOBT in N-methyl-2-pyrrolidinone. To be noted: whole synthesis, analytical HPLC, Vydac C18, 214 nm, acetate salt.

Consider “4-des-Acetylvinblastine-23-(N-Ac-4-trans-L-Hyp-Ser-Ser-Chg-Gln-Ser-HCAP) amide acetate salt”, for which the “final HPLC purity” value in series [1] (214 nm) was determined as 99%.

As for “4-des-Acetylvinblastine-23-(N-Ac-Ser-Chg-Gln-Ser-Ser-Pro-HCAP) amide acetate salt”, in series [1] (214 nm), the “final HPLC purity” value was 99%.

Regarding “N-Acetyl-4-trans-L-Hyp-Ser-Ser-Chg-Gln-Ser-HCAP amine”, the “purity (crude or final not stated)” value in series [1] (214 nm) turned out to be 99%.

Consider “N-Acetyl-Ser-Chg-Gln-Ser-Ser-Pro-HCAP amine”, for which, in series [1] (214 nm), the “purity (crude or final not stated)” value came out at 99%.

In the case of N-Acetyl-Ser-Ser-Ser-Chg-Gln-Ser-Val-OH, the “crude HPLC purity” value in series [2] (scale 3 x 0.5 mmol) was found to be 96%.

On to “N-methoxydiethyleneoxyacetyl-4-trans-L-Hyp-Ser-Ser-Chg-Gln-Ser-Val-OH”, for which the “final HPLC purity” value in series [2] (scale 2 x 0.5 mmol) is reported as 99%.

With “des-Acetylvinblastine-4-O-(N-Acetyl-4-trans-L-Hyp-Ser-Ser-Chg-Gln-Ser-Ser-Pro) ester”, the “final HPLC purity” value in series [1] (analytical HPLC, Vydac C18, 214 nm) came out at 98.9%.
